ChEMBL document CHEMBL5042558, “Selective Macrocyclic Inhibitors of DYRK1A/B” (ACS Med Chem Lett, 2022)

Sequences of proteins named here, by UniProt entry; tags and fusion partners are left off.
UniProt Q9Y463, whole entry: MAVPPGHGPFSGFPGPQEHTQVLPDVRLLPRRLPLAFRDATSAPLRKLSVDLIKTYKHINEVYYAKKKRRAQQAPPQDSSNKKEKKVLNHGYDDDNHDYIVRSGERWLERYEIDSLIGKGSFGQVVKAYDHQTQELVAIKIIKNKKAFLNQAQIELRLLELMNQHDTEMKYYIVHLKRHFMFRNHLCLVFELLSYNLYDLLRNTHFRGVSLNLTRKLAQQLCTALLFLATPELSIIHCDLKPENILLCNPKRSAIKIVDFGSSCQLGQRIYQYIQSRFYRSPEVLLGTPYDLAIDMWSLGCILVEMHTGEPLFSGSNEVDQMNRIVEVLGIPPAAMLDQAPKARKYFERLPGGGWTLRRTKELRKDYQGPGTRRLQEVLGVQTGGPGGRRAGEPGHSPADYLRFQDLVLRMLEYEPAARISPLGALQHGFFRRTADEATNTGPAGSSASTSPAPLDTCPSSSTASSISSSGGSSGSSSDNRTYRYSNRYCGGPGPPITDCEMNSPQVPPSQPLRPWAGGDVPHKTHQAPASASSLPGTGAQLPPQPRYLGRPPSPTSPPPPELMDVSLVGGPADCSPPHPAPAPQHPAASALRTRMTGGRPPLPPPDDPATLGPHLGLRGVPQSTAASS

Tests used:
[1] = molecular target: T1, Dual specificity tyrosine-phosphorylation-regulated kinase 1B (Homo sapiens, UniProt Q9Y463); assay: Inhibition of DYRK1B (unknown origin) measured after 6 hrs in presence of ATP by Z'-LYTE assay
[2] = molecular target: T1, Dual specificity tyrosine-phosphorylation-regulated kinase 1B; assay: Inhibition of DYRK1B (unknown origin) at 1 uM by kinomescan method

IC50 [1]: 5 nM
IC50 [2]: 5 nM
SMILES: CN1Cc2nn(C)c(C#N)c2-c2cnc3[nH]c(F)c(c3c2)-c2cn(nc2C(F)(F)F)CCCC1=O
